Values quoted from earlier work in patent US20090258079A1, “Biocompatible Block Copolymer, Use Thereof and Manufacturing Method Thereof” (priority 2005, published 2009).

Conditions: drug without block copolymer, stated as known property; cited from earlier work

CC(=O)O[C@H]1C(=O)[C@@]2(C)[C@H]([C@H](OC(=O)c3ccccc3)[C@]3(O)C[C@H](OC(=O)[C@H](O)[C@@H](NC(=O)c4ccccc4)c4ccccc4)C(C)=C1C3(C)C)[C@]1(OC(C)=O)CO[C@@H]1C[C@@H]2O [paclitaxel]
solubility of the drug alone in water: insoluble in water
